System: MMP in the MDA-MB-231-derived extracellular vesicles
Assay: Digital detection of MDA-MB-231-derived extracellular vesicles through MMP activity in wells (SB substrates)
Assay type: biochemical, Human
Conditions: 24 hr; for Double-positive ratio 1 Average / Double-positive ratio 2 Average / Double-positive ratio 3 Average / SB Expected value λ Average: MP with #2T, average of the results under the three conditions; for Double-positive ratio 1 (double-positives with respect to all the positives) / Double-positive ratio 2 (double-positives with respect to the positives for any one of SB2, SB6, SB7, SB9, and SB10) / Double-positive ratio 3 (double-positives with respect to the positives for Custom #2T) / Expected value λ / Number of positives / Positive ratio / Expected value λ (×1): MP; for Expected value λ (×1): at x1
Procedure: The concentration of the solution is 10 μg/mL. […] The solution was further diluted 2-fold to prepare a standard sample at a concentration of x1/4, further diluted 3-fold to prepare a standard sample at a concentration of x1/12, and further diluted 3-fold to prepare a standard sample at a concentration of x1/36. Thus, the standard samples with four concentrations were prepared.
In addition, 1 mM Alexa Fluor 647 was used as a standard fluorescent substance, and each of the MMP14 detection solutions contained the standard fluorescent substance at a final concentration of 2 μM.
50 μL of each of the MMP detection solutions was added to 50 μL of each of the samples, a reaction was performed at 30° C., and MMP activity was evaluated.

Row | Substance | Double-positive ratio 1 Average | Double-positive ratio 2 Average | Double-positive ratio 3 Average | SB Expected value λ Average | Double-positive ratio 1 (double-positives with respect to all the positives) (1.25 μM with 1.25 μM #2T) | Double-positive ratio 2 (double-positives with respect to the positives for any one of SB2, SB6, SB7, SB9, and SB10) (1.25 μM with 1.25 μM #2T) | Double-positive ratio 3 (double-positives with respect to the positives for Custom #2T) (1.25 μM with 1.25 μM #2T) | Expected value λ (1.25 μM with 1.25 μM #2T) | Number of positives (1.25 μM with 1.25 μM #2T) | Positive ratio (1.25 μM with 1.25 μM #2T) | Expected value λ (×1) (1.25 μM with 1.25 μM #2T) | Double-positive ratio 1 (double-positives with respect to all the positives) (2.5 μM with 2.5 μM #2T) | Double-positive ratio 2 (double-positives with respect to the positives for any one of SB2, SB6, SB7, SB9, and SB10) (2.5 μM with 2.5 μM #2T) | Double-positive ratio 3 (double-positives with respect to the positives for Custom #2T) (2.5 μM with 2.5 μM #2T) | Expected value λ (2.5 μM with 2.5 μM #2T) | Number of positives (2.5 μM with 2.5 μM #2T) | Positive ratio (2.5 μM with 2.5 μM #2T) | Expected value λ (×1) (2.5 μM with 2.5 μM #2T) | Double-positive ratio 1 (double-positives with respect to all the positives) (5 μM with 5 μM #2T) | Double-positive ratio 2 (double-positives with respect to the positives for any one of SB2, SB6, SB7, SB9, and SB10) (5 μM with 5 μM #2T) | further results
1 | QXL520-Arg-Pro-Leu-Ala-Leu-Trp-Arg-Lys(5-FAM)-NH2 (RPLALWRK; QXL520, 5-FAM, C-terminal amide; printed: Arg-Pro-Leu-Ala-Leu-Trp-Arg-Lys) [SB9] | 0.1473 | 0.1882 | 0.4048 | 0.5016 | 0.1398 | 0.1854 | 0.3622 | 0.3915 | 9,168 | 0.324 | 1.1745 | 0.1417 | 0.1786 | 0.4071 | 0.6211 | 13,100 | 0.4626 | 1.863 | 0.1604 | 0.2005 | Double-positive ratio 3 (double-positives with respect to the positives for Custom #2T) (5 μM with 5 μM #2T): 0.445; Expected value λ (5 μM with 5 μM #2T): 0.4923; Number of positives (5 μM with 5 μM #2T): 11,014; Positive ratio (5 μM with 5 μM #2T): 0.3888; Expected value λ (×1) (5 μM with 5 μM #2T): 1.477
2 | QXL520-Pro-Leu-Ala-Leu-Trp-Ala-Arg-Lys(5-FAM)-NH2 (PLALWARK; QXL520, 5-FAM, C-terminal amide; printed: Pro-Leu-Ala-Leu-Trp-Ala-Arg-Lys) [SB2] | 0.1357 | 0.1626 | 0.4475 | 0.576 | 0.1614 | 0.1937 | 0.4919 | 0.5879 | 12,625 | 0.4445 | 1.764 | 0.09855 | 0.1259 | 0.3119 | 0.5182 | 11,435 | 0.4044 | 1.555 | 0.1471 | 0.1683 | Double-positive ratio 3 (double-positives with respect to the positives for Custom #2T) (5 μM with 5 μM #2T): 0.5386; Expected value λ (5 μM with 5 μM #2T): 0.6219; Number of positives (5 μM with 5 μM #2T): 13,115; Positive ratio (5 μM with 5 μM #2T): 0.4631; Expected value λ (×1) (5 μM with 5 μM #2T): 1.866
